In PubChem BioAssay AID256 (DTP/NCI, 2004):
The list shows only some results of the screen, not a fair sample: its compounds were picked by chemical class. Other doses and runs of a compound may be missing. T/C: endpoint of the treated group in % of that of the vehicle group. For survival time, the PubChem record calls one and a half times the control and up active, and a quarter to a half above the control has no call in these data; cut-offs in other NCI protocols can differ. Schedule codes are those of the source, taken here to give the interval after Q, in days (D) or hours (H), and the number of doses after X. Some molecules as drawn cover several salts, stereoisomers or complexes of the source; a dose is that of the sample tested. Some T/C values are marked as having no survivor count here; that says nothing about deaths at the dose. Some entries were tested several times; the results are listed from low to high. Some T/C values carry the count of animals alive at the toxicity check (mostly the fifth day); where neither a count nor a note follows, no animal had died by that day.

Test system: CD2F1 mice, L1210 leukemia ip, survival T/C
Assay: NCI In Vivo Anticancer Drug Screen. Data for tumor model L1210 Leukemia (intraperitoneal) in CD2F1 (CDF1) mice
Conditions: higher T/C = longer survival
Procedure, shortened: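 Implant tumor; dose compound or vehicle; measure endpoint in both groups; report treated divided by control.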

[1] = T/C endpoint: mean survival time, dose: 6.25 mg/kg/injection, schedule: Q01DX009 (ip), vehicle: Klucel (hydroxypropylcellulose) (HPC)
[2] = T/C endpoint: mean survival time, dose: 12.5 mg/kg/injection, schedule: Q01DX009 (ip), vehicle: Klucel (hydroxypropylcellulose) (HPC)
[3] = T/C endpoint: mean survival time, dose: 25.0 mg/kg/injection, schedule: Q01DX009 (ip), vehicle: Klucel (hydroxypropylcellulose) (HPC)
[4] = T/C endpoint: mean survival time, dose: 100.0 mg/kg/injection, schedule: Q01DX001 (ip), vehicle: saline

## ClCCN1CCN(CCCl)CC1
T/C endpoint: mean survival time, dose: 0.12 mg/kg/injection, schedule: Q01DX009 (ip), vehicle: saline
  T/C: 110 % of control [survivor count not shown]
T/C endpoint: mean survival time, dose: 0.25 mg/kg/injection, schedule: Q01DX009 (ip), vehicle: saline
  T/C: 125 % of control [survivor count not shown]
T/C endpoint: mean survival time, dose: 0.5 mg/kg/injection, schedule: Q01DX009 (ip), vehicle: saline
  T/C: 145 % of control [survivor count not shown]
T/C endpoint: mean survival time, dose: 0.75 mg/kg/injection, schedule: Q04DX003 (ip), vehicle: saline
  T/C: 110 % of control
T/C endpoint: mean survival time, dose: 1.0 mg/kg/injection, schedule: Q01DX009 (ip), vehicle: saline
  T/C: 154 % of control [survivor count not shown]
T/C endpoint: mean survival time, dose: 1.5 mg/kg/injection, schedule: Q04DX003 (ip), vehicle: saline
  T/C: 200 % of control
T/C endpoint: mean survival time, dose: 2.0 mg/kg/injection, schedule: Q01DX009 (ip), vehicle: saline
  T/C: 97 % of control [survivor count not shown]
T/C endpoint: mean survival time, dose: 3.0 mg/kg/injection, schedule: Q04DX003 (ip), vehicle: saline
  T/C: 143 % of control
T/C endpoint: mean survival time, dose: 6.0 mg/kg/injection, schedule: Q04DX003 (ip), vehicle: saline
  T/C: 98 % of control
T/C endpoint: mean survival time, dose: 6.0 micrograms/kg/injection, schedule: Q01DX009 (ip), vehicle: saline
  T/C: 116 % of control [survivor count not shown]
T/C endpoint: mean survival time, dose: 6.2 micrograms/kg/injection, schedule: Q01DX009 (ip), vehicle: saline
  T/C: 97 % of control [survivor count not shown]
T/C endpoint: mean survival time, dose: 12.0 micrograms/kg/injection, schedule: Q01DX009 (ip), vehicle: saline
  T/C: 104 % of control [survivor count not shown]
T/C endpoint: mean survival time, dose: 12.5 micrograms/kg/injection, schedule: Q01DX009 (ip), vehicle: saline
  T/C: 107 % of control [survivor count not shown]
T/C endpoint: mean survival time, dose: 25.0 micrograms/kg/injection, schedule: Q01DX009 (ip), vehicle: saline
  T/C: 91 [survivor count not shown] and 104 % of control [survivor count not shown]
T/C endpoint: mean survival time, dose: 50.0 micrograms/kg/injection, schedule: Q01DX009 (ip), vehicle: saline
  T/C: 100 [survivor count not shown] and 102 % of control [survivor count not shown]
T/C endpoint: mean survival time, dose: 100.0 micrograms/kg/injection, schedule: Q01DX009 (ip), vehicle: saline
  T/C: 104 [survivor count not shown] and 110 % of control [survivor count not shown]
T/C endpoint: mean survival time, dose: 125.0 micrograms/kg/injection, schedule: Q01DX009 (ip), vehicle: saline
  T/C: 122 % of control [survivor count not shown]
T/C endpoint: mean survival time, dose: 200.0 micrograms/kg/injection, schedule: Q01DX009 (ip), vehicle: saline
  T/C: 109 [survivor count not shown] and 125 % of control [survivor count not shown]
T/C endpoint: mean survival time, dose: 250.0 micrograms/kg/injection, schedule: Q01DX009 (ip), vehicle: saline
  T/C: 125 % of control [survivor count not shown]
T/C endpoint: mean survival time, dose: 500.0 micrograms/kg/injection, schedule: Q01DX009 (ip), vehicle: saline
  T/C: 143 % of control [survivor count not shown]
T/C endpoint: mean survival time, dose: 1000.0 micrograms/kg/injection, schedule: Q01DX009 (ip), vehicle: saline
  T/C: 159 % of control [survivor count not shown]
T/C endpoint: mean survival time, dose: 2000.0 micrograms/kg/injection, schedule: Q01DX009 (ip), vehicle: saline
  T/C: 125 % of control [survivor count not shown]
T/C endpoint: median survival time, dose: 0.25 mg/kg/injection, schedule: Q01DX009 (ip), vehicle: saline
  T/C: 123 % of control
T/C endpoint: median survival time, dose: 0.5 mg/kg/injection, schedule: Q01DX009 (ip), vehicle: saline
  T/C: 142 % of control
T/C endpoint: median survival time, dose: 1.0 mg/kg/injection, schedule: Q01DX009 (ip), vehicle: saline
  T/C: 188 % of control

## N#Cc1ccc(N(CCCl)CCCl)cc1
[1]
  T/C: 101 % of control [survivor count not shown]
[2]
  T/C: 103 % of control [survivor count not shown]
[3]
  T/C: 100 [survivor count not shown] and 106 % of control [survivor count not shown]
T/C endpoint: mean survival time, dose: 50.0 mg/kg/injection, schedule: Q01DX009 (ip), vehicle: Klucel (hydroxypropylcellulose) (HPC)
  T/C: 92 [survivor count not shown] and 97 % of control [survivor count not shown]
T/C endpoint: mean survival time, dose: 100.0 mg/kg/injection, schedule: Q01DX009 (ip), vehicle: Klucel (hydroxypropylcellulose) (HPC)
  T/C: 94 [survivor count not shown] and 95 % of control [survivor count not shown]
T/C endpoint: mean survival time, dose: 200.0 mg/kg/injection, schedule: Q01DX009 (ip), vehicle: Klucel (hydroxypropylcellulose) (HPC)
  T/C: 90 [survivor count not shown] and 94 % of control [survivor count not shown]
T/C endpoint: mean survival time, dose: 400.0 mg/kg/injection, schedule: Q01DX009 (ip), vehicle: Klucel (hydroxypropylcellulose) (HPC)
  T/C: 91 % of control [survivor count not shown]

## ClCCN(CCCl)c1ccc(CN2CCCCC2)cc1
[1]
  T/C: 105 % of control [survivor count not shown]
[2]
  T/C: 114 % of control [survivor count not shown]
[3]
  T/C: 105 % of control [survivor count not shown]

## O=P1(N(CCCl)CCCl)OCc2ccccc2O1 (configuration not stated)
T/C endpoint: mean survival time, dose: 25.0 mg/kg/injection, schedule: Q01DX009 (ip), vehicle: water
  T/C: 106 % of control [survivor count not shown]
T/C endpoint: mean survival time, dose: 31.8 mg/kg/injection, schedule: Q01DX001 (ip), vehicle: other
  T/C: 108 % of control [survivor count not shown]
T/C endpoint: mean survival time, dose: 50.0 mg/kg/injection, schedule: Q01DX009 (ip), vehicle: water
  T/C: 105 % of control [survivor count not shown]
T/C endpoint: mean survival time, dose: 62.5 mg/kg/injection, schedule: Q01DX001 (ip), vehicle: other
  T/C: 108 % of control [survivor count not shown]
T/C endpoint: mean survival time, dose: 100.0 mg/kg/injection, schedule: Q01DX009 (ip), vehicle: water
  T/C: 106 % of control [survivor count not shown]
T/C endpoint: mean survival time, dose: 125.0 mg/kg/injection, schedule: Q01DX001 (ip), vehicle: other
  T/C: 122 % of control [survivor count not shown]
T/C endpoint: mean survival time, dose: 200.0 mg/kg/injection, schedule: Q01DX009 (ip), vehicle: water
  T/C: 111 % of control [survivor count not shown]
T/C endpoint: mean survival time, dose: 250.0 mg/kg/injection, schedule: Q01DX001 (ip), vehicle: other
  T/C: 120 % of control [survivor count not shown]

## O=c1c2ccccc2ncn1CCN(CCCl)CCCl
T/C endpoint: mean survival time, dose: 12.5 mg/kg/injection, schedule: Q01DX001 (ip), vehicle: saline
  T/C: 96 % of control [survivor count not shown]
T/C endpoint: mean survival time, dose: 25.0 mg/kg/injection, schedule: Q01DX001 (ip), vehicle: saline
  T/C: 101 % of control [survivor count not shown]
T/C endpoint: mean survival time, dose: 50.0 mg/kg/injection, schedule: Q01DX001 (ip), vehicle: saline
  T/C: 106 % of control [survivor count not shown]
[4]
  T/C: 110 % of control [survivor count not shown]

## O=P(Cl)(Cl)N1CCCCCC1
[4]
  T/C: 102 % of control [survivor count not shown]
T/C endpoint: mean survival time, dose: 100.0 mg/kg/injection, schedule: Q04DX003 (ip), vehicle: saline with Tween-80
  T/C: 106 % of control [survivor count not shown]
T/C endpoint: mean survival time, dose: 200.0 mg/kg/injection, schedule: Q01DX001 (ip), vehicle: saline
  T/C: 93 % of control [survivor count not shown]
T/C endpoint: mean survival time, dose: 200.0 mg/kg/injection, schedule: Q04DX003 (ip), vehicle: saline with Tween-80
  T/C: 110 % of control [survivor count not shown]
T/C endpoint: mean survival time, dose: 400.0 mg/kg/injection, schedule: Q01DX001 (ip), vehicle: saline
  T/C: 90 % of control [survivor count not shown]

## C/C(=N/OP(N)(=O)N(CCCl)CCCl)c1ccccc1 (configuration not stated)
T/C endpoint: mean survival time, dose: 31.25 mg/kg/injection, schedule: Q01DX001 (ip), vehicle: distilled water + Tween-80
  T/C: 98 % of control
T/C endpoint: mean survival time, dose: 62.5 mg/kg/injection, schedule: Q01DX001 (ip), vehicle: distilled water + Tween-80
  T/C: 98 % of control
T/C endpoint: mean survival time, dose: 125.0 mg/kg/injection, schedule: Q01DX001 (ip), vehicle: distilled water + Tween-80
  T/C: 98 % of control
T/C endpoint: mean survival time, dose: 250.0 mg/kg/injection, schedule: Q01DX001 (ip), vehicle: distilled water + Tween-80
  T/C: 98 % of control [5 of 6 alive]
T/C endpoint: mean survival time, dose: 500.0 mg/kg/injection, schedule: Q01DX001 (ip), vehicle: distilled water + Tween-80
  T/C: 104 % of control
